Experimental data: PubChem BioAssay AID488966 (Southern Research Specialized Biocontainment Screening …, 2010)
Screen size: about 340,000 compounds; about 55 (0.02%) were called active. Inconclusive means that the source gave no clear call. Such entries were picked first, then a sample of the others.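 Rule for the calls: active = phage lysis inhibition, versus mean bacterial control, above a set limit; inconclusive = no clear call, values can overlap the other calls; inactive = the rest.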

Experiment: protection from phage-mediated lysis, alamar blue read-out – E. coli UTI89, K1F phage, bacterial capsule biogenesis inhibitors (AID 488966);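 note: capsule biogenesis inhibitors block K1F phage lysis so surviving cells raise fluorescence; higher fluorescence means more inhibition of phage lysis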
Conditions: 2 h; inhibition: at 100 µM, active compounds read high unless noted; series mostly up to 300 µM

Structure (SMILES)	inhibition
CCC(C)(C(=O)NC1CCCCC1)N(C(=O)C1CCC(=O)N1)c1ccc(C)cc1 (configuration not stated)	inconclusive: 15.6%
O=C(Cn1cnc(S(=O)(=O)N2CCCC2)c1)Nc1ccccc1	inactive: 0.25%
O=C1CCC(C(=O)N(c2ccccc2)C2(C(=O)NC3CCCCC3)CCCCC2)N1 (configuration not stated)	inconclusive: 19%
CC1CCN(C(=O)COC(=O)c2cc3ccccc3oc2=O)CC1	inconclusive: 18.2%
C/C(=N\NC(=O)c1cc(-c2cccs2)nc2ccccc12)c1ccccn1	inconclusive: 20.1%
O=C(Nc1ccc(Br)cc1)c1ccc2ncsc2c1	inactive
Cc1ccccc1OCC(=O)Nc1ccc(C(=O)Nc2ccccc2C(=O)O)cc1	inactive: 0.645% [at 50 µM, active compounds read high]
CC(=O)Nc1ccc(C(=O)OCC(=O)c2cccc([N+](=O)[O-])c2)cc1	inconclusive: 17.2%
COc1cc(C2CC(=O)N(c3ccc(C)cc3)C(=O)C2)cc(OC)c1OC	inconclusive: 17%
CC(=O)c1cccc(NC(=O)COC(=O)[C@@H](NC(=O)OCc2ccccc2)C(C)C)c1	inconclusive: 15.8%
CNCCC(Oc1ccc(C(F)(F)F)cc1)c1ccccc1 (configuration not stated)	inconclusive: 16.1%
COc1ccc(S(=O)(=O)N(C)C)cc1NC(=O)C1CCN(c2ncnc3sc(C)c(C)c23)CC1	inconclusive: 17.3%
COC(=O)CSc1nc(N2CCOCC2)c2c(c1C#N)CCCC2	inconclusive: 16.8%
COc1ccc(-c2noc(CCCC(=O)NC3CCCC3)n2)cc1OC	inconclusive: 77%
Cc1noc(/C=C/c2ccco2)c1S(=O)(=O)N1CCC(C(=O)NCc2ccco2)CC1	inactive: 0.57%
O=C(CN1CCN(Cc2ccc(F)cc2Cl)CC1)NCc1ccccc1	inconclusive: 17%
COc1cccc(CNS(=O)(=O)c2cc(CN3C(=O)c4cccnc4C3=O)ccc2OC)c1	inconclusive: 17.2%
CN1CCc2cc3c(c4c2[C@H]1[C@H](O)c1ccccc1-4)OCO3	inconclusive: 16%
CCOC(=O)c1cnc(SC)nc1NCCOC	inconclusive: 21%

Structure (SMILES)	inhibition
CCNC(=S)NNC(=O)c1cc(-c2cc(C)ccc2C)nc2ccccc12	inconclusive: 19%
Clc1ccc(CNCCC2=CCCCC2)cc1	inconclusive: 16.8%
Cc1ccc(CC(NC(=O)c2ccccc2)C(=O)NC(CC(C)C)C(=O)O)cc1 (configuration not stated)	inactive: 0.84%
O=C(O)CN1C(=O)CCS(=O)c2ccccc21 (configuration not stated)	inconclusive: 19.4%
CCC1CCCCN1S(=O)(=O)c1ccc(NC(=O)c2nc(S(C)(=O)=O)ncc2Cl)cc1 (configuration not stated)	inconclusive: 17.8%
Cc1ccc(N2CCN(C(=O)CN3C(=O)c4ccccc4C3=O)CC2)cc1	inconclusive: 17.5%
C/C(=N\NC(=S)NCCc1ccccc1)c1ccc(C#N)cc1	inactive: 0.17%
Cc1cc(C)c2sc(NNC(=O)C3COc4ccccc4O3)nc2c1 (configuration not stated)	inactive: 3.07%
N=C1/C(=C\c2ccc(SCc3ccco3)o2)C(=O)N=C2SC=NN12	inactive
O=C(COc1ncnc2ccccc12)NCc1ccco1	inconclusive: 19.1%
O=c1c(O)c(-c2ccc(O)c(O)c2)oc2cc(O)ccc12	inconclusive: 15.6%
CCOC(=O)C1(Cc2ccc(Cl)cc2)CCN(C(C)Cc2ccc(O)c(OC)c2)CC1 (configuration not stated)	inactive: 0.5%
CCCCCC(O)(CCCCC)C(=O)NNc1ccccc1	inconclusive: 17.4%
COc1cc(/C=C2/C(=N)N3N=C(CC(=O)N4CCOCC4)SC3=NC2=O)ccc1OCc1ccccc1	inconclusive: 82%
O=C(CN1C(=O)NC2(CCCCC2)C1=O)Nc1ccc(N2CCOCC2)cc1	inconclusive: 16.1%
CNC(=O)C1Cc2ccccc2CN1S(=O)(=O)c1ccc(OC)c(OC)c1 (configuration not stated)	inconclusive: 20.6%
CC[C@H](C)Cc1cn([C@@H](CCCN=C(N)N)C(=O)NCCCCCCCCCCC(=O)N2CCNCC2)nn1	inconclusive: 15.7%
CN1CCCC(CC2c3ccccc3Sc3ccccc32)C1 (configuration not stated)	inconclusive: 16.1%
CCOC(=O)C1CCN(C(=O)CN(c2ccc3c(c2)OCO3)S(C)(=O)=O)CC1	inactive: 0.52%

For convenience, three of the compounds above:
Structure (SMILES)	inhibition
COc1ccc(-c2noc(CCCC(=O)NC3CCCC3)n2)cc1OC	inconclusive: 77%
Cc1noc(/C=C/c2ccco2)c1S(=O)(=O)N1CCC(C(=O)NCc2ccco2)CC1	inactive: 0.57%
O=C(CN1CCN(Cc2ccc(F)cc2Cl)CC1)NCc1ccccc1	inconclusive: 17%

More compounds

Structure (SMILES)	inhibition
CC1CC(=S)Nc2ccccc2N1Cc1ccccc1 (configuration not stated)	inconclusive: 17.1%
CN(C)Cc1ccccc1Sc1cccc2ccccc12	inconclusive: 17.3%
CC(=O)NN=C1CCC(c2ccccc2)CC1 (configuration not stated)	inactive: 4.73%
Cc1cc(C)n(CC(=O)NCc2ccccc2)c(=O)c1C#N	inactive: 0.26%
O=C1c2cccc(NCCCNCCO)c2C(=O)c2cccc(NCCCNCCO)c21	inactive
Brc1c(OCCOCCn2cncn2)ccc2ccccc12	inactive: -1.02%
CN(C)CCCN(C(=O)c1ccc(C(=O)c2ccccc2)cc1)c1nc2c(F)cccc2s1	inconclusive: 21.6%
CN1C(=O)SC(Nc2ccccc2)C1=O (configuration not stated)	inconclusive: 21.3%
OC1(c2ccc(Br)cc2)CCNCC1	inconclusive: 15.2%
CCC(C)(C)n1nnnc1C(c1ccc2ncccc2c1)N1CCN2CCCC2C1 (configuration not stated)	inconclusive: 17.6%
CN(C)C(C)(C)C#CCC(c1ccccc1)c1ccccc1	inconclusive: 17.9%
N=c1c(C(=O)NCCN2CCOCC2)cc2c(=O)n3ccccc3nc2n1Cc1ccc(F)cc1	inconclusive: 16.4%
COc1ccccc1N/C(N)=N/c1nc(CSc2ccc(C)cc2)cc(=O)[nH]1	inconclusive: 16.1%
N=C(N)c1ccc(O)cc1	inactive: -1.49%
CNCCC=C1c2ccccc2C=Cc2ccccc21	inconclusive: 18.5%
C#CCOCCOCCOCCNc1nc(N2CCN(C(=O)[C@H](CCCCN)n3cc([C@@H](N)C(C)CC)nn3)CC2)nc(N2CCN(C(=O)[C@H](Cc3cc4ccccc4[nH]3)n3cc([C@@H](N)CC(C)C)nn3)CC2)n1 (some centres not stated)	inconclusive: 16.8%
O=C(NCc1ccccc1Cl)c1cc([N+](=O)[O-])ccc1Cl	inactive: 0.11%
Cc1ccc(NC(=O)CCn2c(=O)[nH]c3ccsc3c2=O)cc1C	inconclusive: 18.5%
Fc1ccc(CNC(=S)Nc2cccc(Cl)c2)cc1	inconclusive: 15.4%
